# Measurements taken from PubChem BioAssay AID504467 (National Center for Advancing Translational Sciences (NCATS), 2011).
# About 7,700 (2.3%) of roughly 330,000 compounds were called active. Inconclusive means that the source gave no clear call. Such entries were picked first, then a sample of the others. The call rests on the fitted dose curve; in most records, active means well fitted inhibition curve with a large enough effect; inconclusive means small, poorly fitted or top-dose-only effect, or effect the other way; inactive means flat fitted curve, though single readings scatter. Potencies of inconclusive entries are doubtful fits and often do not repeat.
# Test: qHTS screen for small molecules that inhibit ELG1-dependent DNA repair in human embryonic kidney (HEK293T) cells expressing luciferase-tagged ELG1; further: nearly all actives have a fitted effect of over 55% in size
# Conditions: HEK293T ELG1-luciferase reporter, luminescence, 16 h, DNA damage induced by 5-fluorouridine; activity change, negative = inhibition: at 46.1 µM (top of the series)
# Summary of the method: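 5-Fluorouridine DNA damage + compound/DMSO, 2,000 cells/well, 16 h, 37 °C/5% CO2. ONE-Glo, 30 min RT, luminescence. Readout = decrease in reporter signal.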
# On the % scale 0 is the no-effect control and ±100 the full control effect; potency means the concentration at half of the fitted maximal effect.
Structure (SMILES),Potency,"activity change, negative = inhibition"
O=C(CN1CCCN(S(=O)(=O)c2ccc(F)cc2)CC1)Nc1c(Cl)cccc1Cl,"inconclusive: 29.1 µM [inhibitor, single point]",–
CSc1ncc(C(=O)Nc2ccc(Br)cn2)c(C)n1,–,inactive: -6.28%
O=S(=O)(NCC(c1ccco1)N1CCc2ccccc21)c1ccccc1 (stereo not drawn),"inconclusive: 5.8 µM [inhibitor, partial curve, poor fit]",–
COc1ccc(C(=O)COc2ccccc2C(=O)Nc2ccccc2)cc1,"inconclusive: 23.1 µM [inhibitor, single point]",–
Cc1ccccc1OCCNC(=O)c1ccco1,"inconclusive: 25.9 µM [activator, single point]",–
Cc1nc(NCC2CC2)c2nnn(Cc3ccccc3)c2n1,"inconclusive: 1.16 µM [inhibitor, full curve]",–
CC(=O)Nc1ccc(/C=C/C(=O)c2ccc3c(c2)OCCO3)cc1,–,inactive: 7.56%
Cc1ccc2nc(NCCCO)nc(-c3ccccc3)c2c1,–,inactive: -12%
Cc1cc(N2CCN(c3ccccc3)CC2)nc(-c2ccccc2)n1,"inconclusive: 13 µM [inhibitor, partial curve, poor fit]",–
CCN1CCN(CCCNC(=O)Cn2nc(C)n3nc(-c4ccccc4)cc3c2=O)CC1,"inconclusive: 11.6 µM [activator, partial curve]",–
Cc1nc2c(C(=O)NCc3ccc4c(c3)OCO4)c[nH]n2c(=O)c1Cc1ccccc1F,"inconclusive: 3.55 µM [inhibitor, single point]",–
Cc1cccc2cc(CN(CCN3CCOCC3)C(=O)Nc3ccccc3F)c(=O)[nH]c12,active: 3.26 µM,–
O=C(NC(=S)NCC1CCCO1)c1ccccc1F (stereo not drawn),"inconclusive: 13 µM [activator, partial curve]",–
CCOc1ccc(Nc2nc(Nc3ccc(O)cc3)nc(C)c2[N+](=O)[O-])cc1,–,inactive: 14.4%
COc1ccc(NC(=O)CN2CCc3ccccc3C2)cc1S(=O)(=O)N1CCOCC1,–,inactive: 5.7%
CN(C)CCNC=C(C(=O)Nc1ccc(Cl)cc1Cl)C(=O)Nc1ccc(Cl)cc1Cl,"inconclusive: 3.66 µM [activator, partial curve]",–
CN(C)c1ccc(C=C(c2nnnn2-c2ccccc2)c2nnnn2-c2ccccc2)cc1,active: 11.6 µM,–
C/C(=N/NS(=O)(=O)c1ccccc1)c1c[nH]c2ccccc12,"inconclusive: 20.6 µM [activator, partial curve, poor fit]",–
CCC(C)NC(=S)N(CCc1ccccc1)Cc1cc2cc(OC)c(OC)cc2[nH]c1=O (stereo not drawn),active: 6.51 µM,–
Cc1ccccc1CN(C)C(=O)c1ccc2ccccc2n1,–,inactive: -2.15%
CS(=O)(=O)N(CC(=O)O)c1cc(C(F)(F)F)ccc1Cl,–,inactive: 29.6%
Cc1cc(C(C)(C)C)cc(C)c1CCNC(=O)c1ccc[n+]([O-])c1,"inconclusive: 10.3 µM [activator, partial curve, poor fit]",–

Structure (SMILES),Potency,"activity change, negative = inhibition"
Cc1ccc(-c2nc(NCCN(C)C)c3ccccc3n2)cc1,"inconclusive: 25.9 µM [activator, single point]",–
COc1ccc(Nc2ncnc3ccc([N+](=O)[O-])cc23)c(OC)c1,"inconclusive: 20.6 µM [inhibitor, single point]",–
Cc1cc(S(=O)(=O)NCc2ccccc2)ccc1OCC(=O)Nc1cccc([N+](=O)[O-])c1,"inconclusive: 18.4 µM [inhibitor, single point]",–
O=C(CSc1ccccn1)NC1CCCC1,"inconclusive: 20.6 µM [activator, partial curve, poor fit]",–
CCOc1ccc(C(CCc2ccccc2)NC(=O)c2ccccc2F)cc1OCC (stereo not drawn),"inconclusive: 25.9 µM [inhibitor, single point]",–
COc1ccc2oc(C(=O)OCC(=O)Nc3cc(S(=O)(=O)N4CCOCC4)ccc3C)c(C)c2c1,"inconclusive: 25.9 µM [inhibitor, single point]",–
O=C(CCNS(=O)(=O)c1ccc(Br)cc1)NC1CCN(Cc2ccccc2)CC1,"inconclusive: 4.11 µM [inhibitor, partial curve, poor fit]",–
COc1cc(/C=C2\C(=N)N3N=C(C)SC3=NC2=O)cc(Cl)c1OCCOc1ccc(NC(C)=O)cc1,–,inactive: 2.92%
COCCC(=O)N1CCC(Oc2ccc(C(=O)N(C)CCCC3CCCC3)cc2)CC1,"inconclusive: 29.1 µM [inhibitor, single point]",–
CC1CN(C(=O)c2cc(S(=O)(=O)N(C)c3ccc(F)cc3)ccc2Cl)CC(C)O1 (stereo not drawn),"inconclusive: 3.66 µM [inhibitor, single point]",–
COc1cnc(-c2ccccn2)nc1Oc1ccc(Cl)cc1,"inconclusive: 0.501 µM [inhibitor, full curve, poor fit]",–
Nc1nonc1C(=O)NCCNCc1cc(Br)ccc1OCc1ccccc1F,"inconclusive: 12.6 µM [inhibitor, partial curve, poor fit]",–
Cc1ccc(C(=O)N/N=C/c2ccc(OC(=O)c3ccccc3Cl)cc2)cn1,"inconclusive: 18.3 µM [activator, single point]",–
COc1ccc(NC(=O)CSc2nncn2C)cc1,"inconclusive: 25.9 µM [activator, single point]",–
CCOC(=O)N1CCC(N2Cc3cccc(C(=O)Nc4cc(F)ccc4F)c3C2=O)CC1,"inconclusive: 4.11 µM [inhibitor, full curve]",–
O=C(/C(=C/O)N=Nc1ccccc1Cl)c1ccccc1,"inconclusive: 29.1 µM [inhibitor, single point]",–
COc1cccc2cc(C(=O)NC(C)C3CCCO3)c(=O)oc12 (stereo not drawn),"inconclusive: 18.4 µM [activator, partial curve]",–
NC(=O)c1cc2c3ccccc3ccn2c1-c1ccccc1,"inconclusive: 11.6 µM [activator, partial curve]",–
N#C/C(=C\c1ccc[nH]1)C(=O)NC1CC1,–,inactive: -0.506%
CCn1c(C)nc2cc(C(=O)NNC(=O)c3ccc(C)cc3)ccc21,"inconclusive: 0.411 µM [activator, full curve]",–
Cc1ccc(S(N)(=O)=O)cc1NC(=O)/C=C/c1ccc2c(c1)OCO2,–,inactive: 0%

# Given tab-delimited: part of the list above
Structure (SMILES)	Potency	activity change, negative = inhibition
Cc1cc(N2CCN(c3ccccc3)CC2)nc(-c2ccccc2)n1	inconclusive: 13 µM [inhibitor, partial curve, poor fit]	–
C/C(=N/NS(=O)(=O)c1ccccc1)c1c[nH]c2ccccc12	inconclusive: 20.6 µM [activator, partial curve, poor fit]	–
COc1cnc(-c2ccccn2)nc1Oc1ccc(Cl)cc1	inconclusive: 0.501 µM [inhibitor, full curve, poor fit]	–
CCOC(=O)N1CCC(N2Cc3cccc(C(=O)Nc4cc(F)ccc4F)c3C2=O)CC1	inconclusive: 4.11 µM [inhibitor, full curve]	–
